Reference: PubChem BioAssay AID602196 (INSERM, 2012)
Here is a random part of about 23,000 reagents. 455 of them (2%) were called active. 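Active includes both protection and sensitisation; some change values fall well beyond the stated -50 to +50 range.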 Further read-outs or replicates are left out here. Not stated in the record: the amount of reagent.

Assay: 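Genes whose knock-down alters cisplatin killing of lung cancer cells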
Cell system: human A549 lung cancer cells
Knock-down reagent: siRNA pair against human genes
Time to read-out: 48 h transfection before cisplatin; time from cisplatin to read-out not stated
Treatment: cisplatin at a dose killing half of control-siRNA cells; exact dose and duration not given
Measured: 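Shift in cisplatin death relative to control siRNA, from -50 (all cells die) to +50 (no cells die); siRNAs harmful on their own scored 0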
Scale: two-siRNA summed score (-2 to +2): higher = both siRNAs protect from cisplatin killing; -2 means both sensitise
Rule for the call: 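Each siRNA scores 0 if harmful alone by LDH or WST-1, otherwise +1 if it reduces and -1 if it increases cisplatin killing; a gene is active when both siRNAs agree (sum +2 or -2)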
Meaning of the calls: active = both siRNAs shift cisplatin killing the same way; inactive = no consistent shift, or siRNA harmful alone

For ZNF180, what was measured?
two-siRNA summed score (-2 to +2): 0; call: inactive

What is on record for ASB9?
two-siRNA summed score (-2 to +2): 0; call: inactive

Which result is listed for GLP1R?
two-siRNA summed score (-2 to +2): 0; call: inactive

For GNA11, how do the results read?
two-siRNA summed score (-2 to +2): 0; call: inactive

How did the screen score LOC401020?
two-siRNA summed score (-2 to +2): 0; call: inactive

How did the screen score GPC4?
two-siRNA summed score (-2 to +2): 0; call: inactive

With OSBP2, how do the results read?
two-siRNA summed score (-2 to +2): 1; call: inactive

With LOC442281, how do the results read?
two-siRNA summed score (-2 to +2): -1; call: inactive

With TRPM8, how do the results read?
two-siRNA summed score (-2 to +2): 1; call: inactive

What did the screen give for SCAI?
two-siRNA summed score (-2 to +2): 0; call: inactive

For ODAD2, how do the results read?
two-siRNA summed score (-2 to +2): 0; call: inactive

For CYP4V2, how do the results read?
two-siRNA summed score (-2 to +2): -1; call: inactive

What did the screen give for PRPF4?
two-siRNA summed score (-2 to +2): 0; call: inactive

With RYR1, what does the deposit list?
two-siRNA summed score (-2 to +2): 0; call: inactive

For LOC442643, how do the results read?
two-siRNA summed score (-2 to +2): 0; call: inactive

What did the screen give for TPP1?
two-siRNA summed score (-2 to +2): 0; call: inactive

Which result is listed for FZR1?
two-siRNA summed score (-2 to +2): 0; call: inactive

For SPMIP6, what does the deposit list?
two-siRNA summed score (-2 to +2): 0; call: inactive

What is on record for DMTF1?
two-siRNA summed score (-2 to +2): -1; call: inactive

How did the screen score SDC2?
two-siRNA summed score (-2 to +2): 1; call: inactive

Which result is listed for LOC441832?
two-siRNA summed score (-2 to +2): 0; call: inactive

For DAPK1, what was measured?
two-siRNA summed score (-2 to +2): 0; call: inactive

For LOC440515, what was measured?
two-siRNA summed score (-2 to +2): 0; call: inactive

For LOXL3, what does the deposit list?
two-siRNA summed score (-2 to +2): 1; call: inactive

Which result is listed for EMB?
two-siRNA summed score (-2 to +2): 0; call: inactive

With SNTG2, what was measured?
two-siRNA summed score (-2 to +2): 0; call: inactive

How did the screen score LOC441542?
two-siRNA summed score (-2 to +2): 0; call: inactive

For TAF1B, what was measured?
two-siRNA summed score (-2 to +2): -1; call: inactive

What did the screen give for CCN3?
two-siRNA summed score (-2 to +2): 0; call: inactive

For LOC389657, what was measured?
two-siRNA summed score (-2 to +2): 0; call: inactive

For ARHGEF37, what was measured?
two-siRNA summed score (-2 to +2): 0; call: inactive

No new results follow: entries from further up.
LOC401020 — two-siRNA summed score (-2 to +2) = 0; call = inactive
GPC4 — two-siRNA summed score (-2 to +2) = 0; call = inactive
OSBP2 — two-siRNA summed score (-2 to +2) = 1; call = inactive
LOC442281 — two-siRNA summed score (-2 to +2) = -1; call = inactive
